Several values for one entry are separate records, joined by “and”; a condition that tells them apart may be missing. Equal entries are not always repeated. The whole screen tested about 400,000 compounds, of which about 3,700 (0.93%) were called active. Inconclusive means that the source gave no clear call. Such entries were picked first, then a sample of the others. The call rests on the fitted dose curve; in most records, active means well fitted inhibition curve with a large enough effect; inconclusive means small, poorly fitted or top-dose-only effect, or another doubt; inactive means no such curve, though single readings can be large or run the other way. A potency beside an inconclusive call is a rough fit, not a confirmed value.
What follows are compounds tested against Vitamin D3 receptor (Homo sapiens) (UniProt P11473) (assay: Inhibitors of the vitamin D receptor (VDR): qHTS). Details: VDR-SRC2-3 peptide fluorescence polarization, 2 h; max response, negative = inhibition: hits give low values.
How it was run: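 Compounds are added to VDR with labelled SRC2-3 coactivator peptide and held 2 h at room temperature. Inhibition of the VDR–peptide interaction is then read as a change in fluorescence polarization.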
On the % scale 0 is the no-effect control and ±100 the full control effect; potency means the concentration at half of the fitted maximal effect.

Protein sequences, listed by entry. Tags and fused reporters are not part of them. Lines headed by an entry give the natural chain unless they say otherwise; changes in a name come on top.
UniProt P11473: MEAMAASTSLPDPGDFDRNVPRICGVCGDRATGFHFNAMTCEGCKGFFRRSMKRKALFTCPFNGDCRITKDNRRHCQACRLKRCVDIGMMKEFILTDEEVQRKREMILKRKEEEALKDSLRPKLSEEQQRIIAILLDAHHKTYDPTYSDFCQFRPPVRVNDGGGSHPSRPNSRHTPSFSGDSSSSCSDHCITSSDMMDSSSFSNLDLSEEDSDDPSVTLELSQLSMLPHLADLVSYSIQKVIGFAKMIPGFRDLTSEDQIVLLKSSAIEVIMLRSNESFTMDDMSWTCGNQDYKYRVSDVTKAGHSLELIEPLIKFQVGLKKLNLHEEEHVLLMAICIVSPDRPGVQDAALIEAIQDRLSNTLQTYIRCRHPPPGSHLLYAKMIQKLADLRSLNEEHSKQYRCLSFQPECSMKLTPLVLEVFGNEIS

Row | SMILES | max response, negative = inhibition | Potency
1 | COc1cc2c(cc1OC)-c1c(OC)c(OC)cc3c1[C@H](C2)N(C)CC3 | inactive: -3.36% | –
2 | O=C(c1csc2c1CCCCC2)N1CCC2(CC1)OCCO2 | inactive: 3.89% | –
3 | O=C1NC(=O)N(Cc2ccccc2)C(=O)/C1=C\N1CCCc2ccccc21 | – | active: 35.5 µM
4 | C=CCCC1(C(C)C)C(=O)NC(=S)NC1=O | – | inconclusive: 89.1 µM [inhibitor, single point]
5 | CN1CCN(C(=O)Cc2ccccc2)CC1 | inactive: -13.2% | –
6 | CCc1ccccc1N1C(=O)NC(=O)/C(=C\c2cc(C)n(C)c2C)C1=O | – | inconclusive: 89.1 µM [inhibitor, single point]
7 | COc1ccc(/C=C2/C(=O)N(Cc3ccco3)C(=O)N(C(C)C)C2=O)cc1 | – | inconclusive: 79.4 µM [inhibitor, partial curve, poor fit]
8 | CCOC(=O)c1c(/N=C/C2C(=O)NC(=S)NC2=O)sc2c1CCC2 | – | inconclusive: 28.2 µM [inhibitor, full curve]
9 | O=C1NC(=O)C(=Cc2ccccc2OCCOc2ccc([N+](=O)[O-])cc2)C(=O)N1 | – | active: 44.7 µM
10 | NC(=O)CC[C@@H]1NC(=O)[C@H](Cc2ccccc2)NC(=O)[C@H](Cc2ccc(O)cc2)NC(=O)[C@@H](N)CSSC[C@@H](C(=O)N2CCC[C@H]2C(=O)N[C@@H](CCCN=C(N)N)C(=O)NCC(N)=O)NC(=O)[C@H](CC(N)=O)NC1=O | – | inconclusive: 89.1 µM [inhibitor, single point]
11 | CCOc1ccc(Cc2c(O)[nH]c(=O)[nH]c2=O)cc1 | – | inconclusive: 44.7 µM [inhibitor, partial curve]
12 | O=C(c1cc2nc(-c3ccccc3)cc(-c3ccccc3)n2n1)N1CCC2(CC1)OCCO2 | – | inconclusive: 1 µM [inhibitor, partial curve, poor fit]
13 | CCN(CC)c1ccc(N=Cc2c(O)n(Cc3ccccc3)c(=O)[nH]c2=O)cc1 | inactive: -11.5% and inactive: -5.91% | –
14 | c1ccc(Cc2nn3c(Cn4cnc5ccccc54)nnc3s2)cc1 | – | inconclusive: 79.4 µM [inhibitor, partial curve, poor fit]
15 | COCCCNC(=O)c1c(NC(=O)c2ccco2)n(Cc2ccccc2)c2nc3ccccc3nc12 | – | active: 44.7 µM
16 | O=C1NC(=O)C(=CCc2ccccc2)C(=O)N1 | – | inconclusive: 79.4 µM [inhibitor, partial curve]
17 | CCCCn1c(N)c(C(=O)NCc2cccs2)c2nc3ccccc3nc21 | – | active: 89.1 µM
18 | COc1ccc(OC)c(N2C(=O)NC(=O)/C(=C\c3ccc([N+](=O)[O-])s3)C2=O)c1 | – | inconclusive: 50.1 µM [inhibitor, partial curve, poor fit]

Single entries from above:
Value for O=C(c1cc2nc(-c3ccccc3)cc(-c3ccccc3)n2n1)N1CCC2(CC1)OCCO2 under Potency: inconclusive: 1 µM [inhibitor, partial curve, poor fit]
Value for CCOC(=O)c1c(/N=C/C2C(=O)NC(=S)NC2=O)sc2c1CCC2 under Potency: inconclusive: 28.2 µM [inhibitor, full curve]

(further entries)

Row | SMILES | max response, negative = inhibition | Potency
19 | CC1(C)N([O-])[N+](=O)C1(C)Br (stereo unspecified) | – | inconclusive: 89.1 µM [inhibitor, partial curve, poor fit]
20 | CN(CCOc1ccc(C=C2C(=O)NC(=O)NC2=O)cc1)c1ccccn1 | – | inconclusive: 56.2 µM [inhibitor, partial curve, poor fit]
21 | Cn1cc(C(=O)Cc2ccccc2)c2ccccc21 | – | inconclusive: 50.1 µM [inhibitor, partial curve]
22 | CC(=O)OCC1=C(C(=O)O)N2C(=O)C(NC(=O)CCCC(N)C(=O)O)C2SC1 (stereo unspecified) | – | inconclusive: 70.8 µM [inhibitor, single point]
23 | CC(=O)C1=C(O)[C@@H]2[C@@H]3c4c[nH]c5cccc(c45)C[C@@H]3C(C)(C)N2C1=O | – | inconclusive: 39.8 µM [inhibitor, single point]
24 | Cc1oc(-c2ccccc2Cl)nc1CN1C(=O)CN=C(c2ccccc2)c2ccccc21 | inactive: -23.1% | –
25 | O=C1NS(=O)c2cc([N+](=O)[O-])cc([N+](=O)[O-])c21 (stereo unspecified) | – | inconclusive: 56.2 µM [inhibitor, partial curve, poor fit]
26 | O=C1NC(=O)N(Cc2ccc(F)cc2)C(=O)/C1=C/c1cccs1 | – | active: 50.1 µM
27 | Cc1ccc(C(=O)NC2CCN(S(=O)(=O)c3ccc(C)cc3)CC2)cc1 | – | inconclusive: 70.8 µM [inhibitor, partial curve, poor fit]
28 | [O-]/[N+](=C/c1cccnc1)c1ccc(Br)cc1 | – | active: 44.7 µM
29 | O=C1NC(=O)C(=Cc2ccccc2[N+](=O)[O-])C(=O)N1 | – | inconclusive: 56.2 µM [inhibitor, partial curve, poor fit]
30 | CCCCn1c(NC(=O)c2ccc(Br)o2)c(C(=O)OCC)c2nc3ccccc3nc21 | – | inconclusive: 8.91 µM [inhibitor, full curve, poor fit]
31 | COc1ccc(N2C(=O)CC(=O)NC2=O)cc1 | inactive: 1.05% | –
32 | CC(C)c1cc2c(c(O)c1O)[C@]1(C(=O)O)CCCC(C)(C)C1CC2 (stereo partly specified) | – | active: 44.7 µM
33 | O=C1NC(=O)N(Cc2ccccc2Cl)C(=O)/C1=C/N1CCOCC1 | – | inconclusive: 56.2 µM [inhibitor, partial curve, poor fit]
34 | COC(=O)C1=C(c2ccc(F)cc2OCc2ccccc2)C[C@@H]2CC[C@H]1N2C(=O)NCc1ccc(F)cc1 | inactive: 11.6% | –
35 | Cc1nc2ccccc2c(=O)n1-c1ccccc1[N+](=O)[O-] | – | inconclusive: 22.4 µM [inhibitor, partial curve, poor fit]
36 | O=C1OC(c2cc(I)c(O)c(I)c2)(c2cc(I)c(O)c(I)c2)c2ccccc21 | – | active: 20 µM

From PubChem BioAssay AID504847 (National Center for Advancing Translational Sciences (NCATS), 2011)
